According to US7919579B2, “Imaging and therapeutic targeting of prostate and bladder tissues” (The Board of Regents of the University of Texas System, priority 2006, dated 2011):

System: PCa cells (LNCaP, C4-2, LAPC4 and PC3)
Test: cellular localization of peptides by fluorescence microscopy
Assay type: cell-based
Conditions: 5 μM peptide, 30 minutes; four PCa cells

Substance	cellular localization
^FITC-G- RRRRRRRRRRR -GG-FQLRQAALVASRKGE [R11AAL]	localized in the cytosol with few nuclear staining
^FITC-G-RRRRRRRRRRR-GGG-FQLRQPPLVPSRKGE (GRRRRRRRRRRRGGGFQLRQPPLVPSRKGE) [R11PPL, FITC-R11 conjugated with PPL (DOC-2/DAB2 PR domain) at C-terminus]	localized in the cytosol with few nuclear staining
